The list shows a part of the results. The main result of the screen is listed elsewhere. These columns were measured beside it and carry no call. Most of these compounds were active or inconclusive in the main read-out, so they are no random draw. Words in brackets tell the shape of the fitted curve; partial curves, single points and poor fits give uncertain potencies.
Assay: qHTS Assay for Lipid Storage Modulators in Drosophila S3 Cells;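 on cell number change: cells counted by Cell Tracker Red CMTPX staining in the red channel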
Conditions: BODIPY lipid droplet fluorescence, 18-24 h; for cell number change: measured here: cell count max response, cells fed with added oleic acid
Procedure, shortened: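 Laser-scanning cytometry quantifies lipid droplet accumulation (500–530 nm total intensity; droplet/cell object ratio) in oleic acid-fed (400 uM added) Drosophila S3 cells treated with a concentration series. 20 uM Triacsin C defined 100% inhibition.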

[1] = measured here: lipid fluorescence (Fed channel) AC50, cells fed with added oleic acid
[2] = measured here: cell number channel AC50, cells fed with added oleic acid

## Cc1ccc(Oc2nc(-c3ccccn3)nc3ccccc23)cc1
  cell number change: -23.3%
[1]
  AC50: 16.4 µM [falling, partial curve, poor fit]

## CCOC(=O)c1ccc(NC(=O)Nc2ncc(Cl)cc2Cl)cc1
  cell number change: 4.12%
[1]
  AC50: 0.651 µM [rising, full curve, poor fit]

## O=C(CCS(=O)(=O)c1ccccc1)Nc1ccc(Cl)cn1
  cell number change: -17.1%

## CC(C)NC(=O)CSc1nccc(-c2cccs2)n1
  cell number change: -8.45%
[2]
  AC50: 6.51 µM [falling, single point]
[1]
  AC50: 6.51 µM [falling, partial curve]

## Cc1ccc(NC(=O)NNc2cccc(Cl)n2)cc1
  cell number change: -10.7%
[1]
  AC50: 23.1 µM [falling, single point]

## CN(c1ccccc1C(=O)O)S(=O)(=O)c1ccc2[nH]c(=O)[nH]c2c1
  cell number change: 24.4%

## O=S(=O)(Nc1ccc(Cl)c(C(F)(F)F)c1)c1cnc[nH]1
  cell number change: -23.6%
[2]
  AC50: 0.82 µM [falling, full curve, poor fit]
[1]
  AC50: 0.92 µM [falling, full curve, poor fit]

## COc1ccc(NC(=O)c2ccccc2NS(=O)(=O)c2ccc(C)cc2)c([N+](=O)[O-])c1
  cell number change: -41.2%
[2]
  AC50: 29.1 µM [falling, single point]
[1]
  AC50: 5.8 µM [falling, partial curve]

## Cc1cc(OC(=O)c2cccs2)ccc1C(C)C
  cell number change: -42.1%
[2]
  AC50: 29.1 µM [falling, single point]
[1]
  AC50: 3.66 µM [falling, full curve]

## Cc1ccccc1NC(=O)c1sc2nc(N3CCOCC3)c3c(c2c1N)CCCC3
  cell number change: 2.36%
[1]
  AC50: 0.58 µM [rising, single point]

## O=C(CNS(=O)(=O)c1ccc(Br)cc1)OCc1cc(=O)n2cc(Br)ccc2n1
  cell number change: 23.8%
[1]
  AC50: 11.6 µM [rising, partial curve, poor fit]

## COc1ccccc1/C=C/C(=O)N1CCCC1
  cell number change: -12.9%
[1]
  AC50: 20.6 µM [falling, partial curve]

## Cc1ccc(SCC(=O)NC(C)c2ccccc2)cc1 (stereo unspecified)
  cell number change: 14%

## CCc1c(C)nc2ccc(Br)cc2c1SCCC#N
  cell number change: 32.1%
[2]
  AC50: 7.31 µM [rising, partial curve]
[1]
  AC50: 1.64 µM [rising, partial curve, poor fit]

## O=C(CN1C(=O)c2ccccc2C1=O)N1CCN(S(=O)(=O)c2ccccc2)CC1
  cell number change: 57.7%
[2]
  AC50: 3.66 µM [rising, full curve]
[1]
  AC50: 29.1 µM [rising, single point]

## Cc1ccccc1NC(=S)N1CCN(c2ccccc2C)CC1
  cell number change: -8.07%

## CCCc1cc(O)c2c(C)cc(=O)oc2c1
  cell number change: -21.6%
[1]
  AC50: 8.2 µM [falling, partial curve]

## COc1cc(NC(=O)c2cccnc2Sc2ccc(Cl)cc2)cc(OC)c1OC
  cell number change: 40.4%
[2]
  AC50: 9.2 µM [rising, partial curve]
[1]
  AC50: 5.8 µM [rising, partial curve]

## NS(=O)(=O)c1ccc(-c2ccc(/C=C3\SC(=O)NC3=O)o2)cc1
  cell number change: -4.19%
[1]
  AC50: 4.61 µM [rising, full curve]

## Cc1n[nH]c(=O)nc1NC(C)c1ccccc1 (stereo unspecified)
  cell number change: -8.92%
[1]
  AC50: 4.11 µM [rising, partial curve]

## C/C(CC(=O)Nc1ccc(Cl)cc1C(F)(F)F)=N\NC(N)=S
  cell number change: 36.5%
[2]
  AC50: 29.1 µM [rising, single point]

## O=C(/C=C\c1ccc2c(c1)OCO2)NC1(C(=O)Nc2ccc3c(c2)OCCO3)CCCCC1
  cell number change: 39.4%
[2]
  AC50: 0.82 µM [rising, full curve, poor fit]
[1]
  AC50: 1.84 µM [falling, partial curve]

## CCOC(=O)c1ccc(CSc2nnc(C)n2N)o1
  cell number change: 24.8%
[1]
  AC50: 3.66 µM [falling, partial curve]

## CC(=O)NC1=C(N(C)C2CCS(=O)(=O)C2)C(=O)c2ccccc2C1=O (stereo unspecified)
  cell number change: -32.6%
[2]
  AC50: 6.51 µM [falling, partial curve]
[1]
  AC50: 5.8 µM [falling, partial curve]

## O=C(CCCN1C(=O)NC2(CCCC2)C1=O)Nc1ccc(Cl)c(S(=O)(=O)N2CCOCC2)c1
[1]
  AC50: 0.731 µM [rising, full curve, poor fit]

## CC1(C)Cc2nc3oc4c(=S)nc[nH]c4c3cc2CO1
  cell number change: 3.71%

## O=C1CC(N2CCN(Cc3ccc(Cl)cc3)CC2)C(=O)N1CCc1ccccc1 (stereo unspecified)
  cell number change: -7.87%
[2]
  AC50: 0.0058 µM [falling, full curve, poor fit]
[1]
  AC50: 0.0731 µM [falling, full curve]

## COc1ccc(CCNC(=O)Nc2ccc3c(c2)OCO3)cc1OC
  cell number change: -36.8%
[2]
  AC50: 29.1 µM [falling, partial curve, poor fit]
[1]
  AC50: 20.6 µM [falling, single point]

## Nc1nc(SCC(=O)Nc2c(Br)cc([N+](=O)[O-])cc2Br)n[nH]1
  cell number change: -39.3%
[2]
  AC50: 0.164 µM [falling, full curve]

## CN(CC(=O)Nc1ccc(F)c(F)c1F)C(=O)c1ccc(-n2cncn2)cc1
  cell number change: -2.32%
[1]
  AC50: 29.1 µM [rising, single point]

## Cc1ccc(NC(=O)COC(=O)c2nn(C)cc2Cl)cc1
  cell number change: -16.7%
[1]
  AC50: 1.16 µM [rising, full curve]

## O=C(CN(Cc1ccc(F)cc1)C(=O)c1csnn1)NCc1ccccc1
  cell number change: -21%
[1]
  AC50: 6.51 µM [rising, single point]

## Cc1ccc(S(=O)(=O)/C(=C/Cl)NC(=O)c2ccccc2)cc1
  cell number change: 33.3%
[2]
  AC50: 14.6 µM [rising, single point]
[1]
  AC50: 18.4 µM [falling, partial curve]

## Cc1ccc(CC(=O)Nc2ccc(S(=O)(=O)N3CCOCC3)cc2)cc1
  cell number change: 7.89%

## CCCC1CC(CSc2ncn[nH]2)OC1=O (stereo unspecified)
  cell number change: -14.7%
[1]
  AC50: 0.259 µM [falling, full curve, poor fit]

## COc1ccc(C(=O)NCCC2=CCCCC2)cc1
  cell number change: 18.2%
[1]
  AC50: 29.1 µM [rising, single point]

## NC(=O)C1CCN(CC(=O)NCc2ccccc2)CC1
  cell number change: -31.7%
[1]
  AC50: 18.4 µM [falling, partial curve, poor fit]

## O=C(N/N=C/c1ccncc1)c1cc2c(ccc3ccccc32)o1
  cell number change: -4.75%
[1]
  AC50: 2.59 µM [rising, full curve]

## CCN(CC)S(=O)(=O)c1ccc(NC(=O)Cn2c(=O)oc3ccccc32)cc1
  cell number change: -2.37%

## O=C(CN1CCCCC1)NCCNc1ccc(C(F)(F)F)cc1[N+](=O)[O-]
  cell number change: -7.54%

## CCN(CCCNC(=O)CNC(=O)Cn1cnc2ccccc2c1=O)c1cccc(C)c1
  cell number change: 6.56%

## COc1ccc(S(=O)(=O)N(CC(=O)NN=C2CCN(C)CC2)c2cc(Cl)ccc2OC)cc1OC
  cell number change: 15.8%
[1]
  AC50: 3.26 µM [falling, partial curve]

## C=CCn1c(SCc2ccc(C#N)cc2)nnc1-c1cccc(OC)c1
  cell number change: 55.6%
[2]
  AC50: 10.3 µM [rising, partial curve]

## Cc1cc(C)nc(N/C(=N\S(=O)(=O)Cc2ccccc2)Nc2ccc(F)c(Cl)c2)n1
  cell number change: 10.7%

## O=C(C1COc2ccccc2O1)N1CCc2ccccc21 (stereo unspecified)
  cell number change: 113%
[2]
  AC50: 29.1 µM [rising, single point]

## Cc1nn(Cc2ccc(F)cc2)c(C)c1NC(=O)c1cc(-c2ccco2)on1
  cell number change: 12.1%
[1]
  AC50: 0.116 µM [rising, full curve]

## Cc1ccc(C)c(N(C)C(=O)c2cc3c(=O)[nH]c4ccc(C)cc4c3s2)c1
  cell number change: 11.5%
[1]
  AC50: 0.366 µM [rising, full curve]

## S=C(Nc1cc(Cl)ccc1Oc1ccccc1)N1CCN(c2ccccn2)CC1
  cell number change: -69.5%
[2]
  AC50: 3.66 µM [falling, full curve]
[1]
  AC50: 2.31 µM [falling, full curve]

## CCOc1ccc(NC(=O)COC(=O)CCS(=O)(=O)c2ccc(C)cc2)cc1
  cell number change: 68.9%

## O=C(O)c1ccccc1SC1CC(=O)N(c2ccccc2)C1=O (stereo unspecified)
  cell number change: -76.8%
[2]
  AC50: 0.146 µM [falling, full curve, poor fit]
[1]
  AC50: 14.6 µM [falling, partial curve, poor fit]

## Cc1cc(NC(=O)COC(=O)c2oc3c(Cl)cccc3c2C)no1
  cell number change: -39.1%
[2]
  AC50: 8.2 µM [falling, partial curve, poor fit]

## Cc1cc(C)c2c(N=CN(C)C)c(C(=O)N3CCN(c4ncccn4)CC3)sc2n1
  cell number change: 5.3%

## O=C(Nc1ccccc1C(=O)O)c1ccc(Br)o1
  cell number change: 6.13%

## COc1ccccc1CC(=O)NC1CCCc2ccccc21 (stereo unspecified)
  cell number change: 16.5%
[1]
  AC50: 18.4 µM [rising, single point]

## CN(CC(=O)NC1CCCCCCC1)S(=O)(=O)c1cnc[nH]1
  cell number change: 31.8%
[2]
  AC50: 5.8 µM [falling, single point]
[1]
  AC50: 3.66 µM [falling, partial curve]

## COc1ccccc1OCC(=O)Nc1cccc(-c2nnc(-c3ccco3)o2)c1
  cell number change: 42.1%
[2]
  AC50: 0.326 µM [rising, full curve, poor fit]
[1]
  AC50: 0.517 µM [rising, full curve]

## CC1(C)CC[C@]2(C(=O)O)[C@H](O)C[C@]3(C)C(=CCC4[C@@]5(C)C[C@H](O)[C@H](O)[C@@](C)(CO)C5CC[C@]43C)[C@@H]2C1 (stereo partly specified)
  cell number change: -22.4%
[1]
  AC50: 0.651 µM [falling, full curve, poor fit]

## Cc1ccc(S(=O)(=O)N2CCN(Cc3csc(C)n3)CC2)cc1
  cell number change: 26.8%
[1]
  AC50: 2.31 µM [rising, partial curve]

## O=C(O)c1cccc2c1C(=O)c1ccc(N3CCCC3)cc1S2(=O)=O
  cell number change: 0.859%
[2]
  AC50: 1.84 µM [falling, single point]
[1]
  AC50: 6.51 µM [falling, partial curve, poor fit]

From PubChem BioAssay AID2685 (National Center for Advancing Translational Sciences (NCATS), 2010)
